PubChem BioAssay AID1053208, Peter MacCallum Cancer Centre, 2014
Here is an unselected part of about 17,000 deposited reagents. 788 of them (4.7%) were called active. 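Calls rest on z-score classes alone; an extra cut-off of viability at most 70% of control was not applied to them.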 A reagent listed more than once was tested more than once; the source does not tell the runs apart.

Screen: 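Genes whose silencing cuts survival of bone tumour cells only with doxorubicin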 (primary screen)
Cell system: mouse osteosarcoma cells, early-passage culture from an engineered mouse model of fibroblastic bone tumour
Reagents: siRNA pool against mouse genes, 40 nM
Time to read-out: about 120 h (48 h before drug, then 72 h with drug)
Treatment: doxorubicin 100 nM for 72 h, roughly 30-40% inhibitory dose
Detection: 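Viability read as ATP luminescence after 72 h of 100 nM doxorubicin or none, duplicate wells averaged, scaled to non-targeting siRNA, then expressed as robust z-scores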
Direction: viability z-score with doxorubicin and doxorubicin viability vs non-targeting: higher = more viable cells under doxorubicin; viability z-score without drug: higher = more viable cells with knock-down alone; z-score of drug to no-drug ratio: higher = less drug sensitisation by knock-down
Call rule: 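Called active if knock-down leaves viability unchanged without drug (z within -2 to 2) but lowers it with doxorubicin (z at or under -2)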

gene knocked down | combined z-score class | viability z-score with doxorubicin | viability z-score without drug | z-score of drug to no-drug ratio | doxorubicin viability vs non-targeting | outcome
Or6f2 | no change with or without drug | -0.22 | 0.34 | -0.34 | 0.92 | inactive
Plekhf1 | no change with or without drug | -0.22 | -0.34 | 0.11 | 0.92 | inactive
Sec61a1 | no change with or without drug | -0.9 | -0.84 | -0.22 | 0.86 | inactive
Slc38a5 | low cell count with doxorubicin only | -2.02 | 0.51 | -2.25 | 0.76 | active
Ctsh | no change with or without drug | -0.56 | -0.84 | 0.11 | 0.89 | inactive
Or4c12b | low cell count without drug only | -0.9 | -2.02 | 0.67 | 0.86 | inactive
Nxnl1 | low cell count with doxorubicin only | -2.14 | 0.17 | -2.25 | 0.75 | active
Fto | no change with or without drug | 0.22 | 1.18 | -0.45 | 0.96 | inactive
Sparcl1 | no change with or without drug | -0.45 | -0.51 | 0 | 0.9 | inactive
Ccdc28b | no change with or without drug | -0.45 | 1.69 | -1.35 | 0.9 | inactive
Panx3 | no change with or without drug | 0.56 | 0.34 | 0.45 | 0.99 | inactive
Fzd6 | no change with or without drug | 0.34 | 0.51 | 0.11 | 0.97 | inactive
Golga3 | no change with or without drug | 0.67 | 0.51 | 0.45 | 1 | inactive
Selenbp1 | no change with or without drug | -0.79 | 0.51 | -1.01 | 0.87 | inactive
Mkrn3 | no change with or without drug | -0.34 | -1.52 | 0.9 | 0.91 | inactive
Akirin1 | no change with or without drug | 0.11 | -0.17 | 0.34 | 0.95 | inactive
Zfp606 | no change with or without drug | -0.22 | 1.52 | -1.12 | 0.92 | inactive
Bdkrb2 | no change with or without drug | 0.9 | -0.51 | 1.46 | 1.02 | inactive
Bdkrb2 | no change with or without drug | -1.8 | 0 | -1.8 | 0.78 | inactive
Exoc4 | no change with or without drug | -1.35 | 0.17 | -1.46 | 0.82 | inactive
Kcnj1 | no change with or without drug | 1.35 | 1.01 | 0.79 | 1.06 | inactive
Pld4 | no change with or without drug | 0.34 | 0.84 | -0.11 | 0.97 | inactive
Or8u3 | no change with or without drug | -0.22 | -0.84 | 0.45 | 0.92 | inactive
Nfyb | no change with or without drug | -0.45 | -0.34 | -0.11 | 0.9 | inactive
Gstt3 | no change with or without drug | -0.22 | -0.17 | 0 | 0.92 | inactive
Ryr3 | high cell count without drug only | 1.12 | 2.87 | -0.56 | 1.04 | inactive
F830045P16Rik | no change with or without drug | 0.56 | 0.51 | 0.34 | 0.99 | inactive
Clec7a | no change with or without drug | -1.01 | -1.18 | -0.11 | 0.85 | inactive
Golga2 | no change with or without drug | -1.57 | 0.17 | -1.69 | 0.8 | inactive
Bag2 | high cell count without drug only | 0.79 | 2.19 | -0.45 | 1.01 | inactive
Camk1g | no change with or without drug | -0.45 | -1.18 | 0.45 | 0.9 | inactive
Caps2 | no change with or without drug | 0.45 | -0.17 | 0.67 | 0.98 | inactive
Alk | no change with or without drug | 1.46 | 0.84 | 1.01 | 1.07 | inactive
Zfp334 | high cell count with doxorubicin only | 2.7 | 1.52 | 1.69 | 1.18 | inactive
Jun | no change with or without drug | -1.12 | 0.17 | -1.12 | 0.84 | inactive
Cnpy1 | no change with or without drug | -0.11 | 0 | 0 | 0.93 | inactive
Pnp | no change with or without drug | 0.22 | 1.01 | -0.34 | 0.96 | inactive
Btn1a1 | no change with or without drug | 0 | -1.18 | 1.01 | 0.94 | inactive
Itgb5 | low cell count with doxorubicin only | -2.14 | -1.18 | -1.46 | 0.75 | active
Or2aa1 | no change with or without drug | 0 | -0.51 | 0.45 | 0.94 | inactive
Or5b116 | no change with or without drug | -0.45 | -0.17 | -0.22 | 0.9 | inactive
Syne2 | no change with or without drug | 0.79 | -0.17 | 1.01 | 1.01 | inactive
Krt35 | no change with or without drug | -0.9 | 1.01 | -1.46 | 0.86 | inactive
A130014H13Rik | no change with or without drug | 0.22 | 0.17 | 0.22 | 0.96 | inactive
Fgfbp3 | no change with or without drug | 0.67 | 0.67 | 0.34 | 1 | inactive
C130070B15Rik | no change with or without drug | -0.45 | 0 | -0.34 | 0.9 | inactive
Gss | no change with or without drug | 0.9 | 0.34 | 0.79 | 1.02 | inactive
Ccr9 | no change with or without drug | -0.67 | -0.84 | 0 | 0.88 | inactive
Klhl28 | no change with or without drug | 0.56 | 1.18 | -0.11 | 0.99 | inactive
C5ar2 | no change with or without drug | -0.22 | 0.17 | -0.22 | 0.92 | inactive

8 neighbouring records from above:
gene knocked down | combined z-score class | viability z-score with doxorubicin | viability z-score without drug | z-score of drug to no-drug ratio | doxorubicin viability vs non-targeting | outcome
Caps2 | no change with or without drug | 0.45 | -0.17 | 0.67 | 0.98 | inactive
Alk | no change with or without drug | 1.46 | 0.84 | 1.01 | 1.07 | inactive
Zfp334 | high cell count with doxorubicin only | 2.7 | 1.52 | 1.69 | 1.18 | inactive
Jun | no change with or without drug | -1.12 | 0.17 | -1.12 | 0.84 | inactive
Cnpy1 | no change with or without drug | -0.11 | 0 | 0 | 0.93 | inactive
Pnp | no change with or without drug | 0.22 | 1.01 | -0.34 | 0.96 | inactive
Btn1a1 | no change with or without drug | 0 | -1.18 | 1.01 | 0.94 | inactive
Itgb5 | low cell count with doxorubicin only | -2.14 | -1.18 | -1.46 | 0.75 | active
